PubChem BioAssay AID652054 (National Center for Advancing Translational Sciences (NCATS), 2013)
In all, about 360,000 compounds went through this assay and about 9,100 (2.5%) were called active. Inconclusive results, whose numbers are uncertain, are shown with a selection of clear calls. No stated cut-off is given here; in the data, active means max response below about -50%; inconclusive means no clear call, values can overlap the other calls; inactive means above that.

Sequences of proteins named here, by UniProt entry; tags and fusion partners are left off.
UniProt P35462, whole entry, looked up: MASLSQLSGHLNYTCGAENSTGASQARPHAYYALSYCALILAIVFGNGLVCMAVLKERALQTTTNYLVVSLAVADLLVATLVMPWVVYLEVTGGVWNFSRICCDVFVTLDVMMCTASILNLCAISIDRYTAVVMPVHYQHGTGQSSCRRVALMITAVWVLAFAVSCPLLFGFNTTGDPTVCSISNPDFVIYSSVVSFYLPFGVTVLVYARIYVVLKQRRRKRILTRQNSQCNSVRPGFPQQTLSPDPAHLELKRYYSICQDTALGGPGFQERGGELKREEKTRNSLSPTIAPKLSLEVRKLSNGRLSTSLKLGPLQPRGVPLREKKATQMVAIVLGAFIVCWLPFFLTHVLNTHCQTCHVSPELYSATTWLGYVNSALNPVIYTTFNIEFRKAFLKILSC

target: D(3) dopamine receptor (Homo sapiens) (UniProt P35462); experiment: qHTS of D3 Dopamine Receptor Antagonist: qHTS; conditions: D3R cells, DiscoveRx beta-arrestin luminescence, antagonist mode; stronger effect = lower value
Procedure, shortened: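 Cells plated overnight at 1500 cells/well, then exposed to library compounds with dopamine controls for 90 minutes at 37 degrees C. DiscoveRx reagent added for 30–60 minutes at room temperature; luminescence read, quantitative HTS format.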
On the % scale 0 is the no-effect control and ±100 the full control effect.

Compound | max response, negative = inhibition
CC(=O)c1ccc(NC(=O)CCSCCC(=O)Nc2ccc(C(C)=O)cc2)cc1 | inactive: 4.38%
Cc1cc(=S)[nH]c(=S)[nH]1 | inconclusive: -31.4%
CC(C)CCN1CCC(CN2C(=O)C(=O)NC[C@@H]2CC(C)C)CC1 | inconclusive: -31.5%
O=[N+]([O-])c1ccc(Oc2ccc(Oc3ccc(C(F)(F)F)cn3)cc2)nc1 | inconclusive: -48.2%
CCOC(=O)c1sc(NC(=O)c2ccncc2)nc1C | inconclusive: -46.6%
Cc1cc(=O)n(CCCc2ccccc2)[nH]1 | active: -67.1%
CCCn1c(CN2CCN(C(=O)OCC)CC2)nc2c1c(=O)n(C)c(=O)n2C | inactive: 14%
CCN1CCN(Cc2ccc(NC(=O)c3ccc(C)c(NC(=O)c4ccno4)c3)cc2C(F)(F)F)CC1 | inconclusive: -47.8%
Nc1ccccc1O | inactive: 4.33%
CC(=O)Nc1ccc(-c2ccnc3c2CC(C)(C(=O)Nc2cccc(Oc4ccccc4)c2)O3)cc1 (configuration not stated) | active: -66.2%
CC1=CC(C)[C@H](/C=N/n2c(=O)[nH]c3c([nH]c4ccc(C)cc43)c2=O)C(C)C1 (some centres not stated) | inconclusive: -35.1%
N#CCCCCn1c(-c2cncs2)nc2ccccc21 | active: -56.2%
OC(c1ccc(F)cc1)C(CN1CCOCC1)c1ccccc1 (configuration not stated) | inactive: -15.2%
CN(C)S(=O)(=O)c1cccc(NC(=O)COC(=O)c2ccc3ccccc3n2)c1 | inactive: 1.39%
O=C(O)COc1ccccc1/C=N/NC(=O)c1cc2ccccc2cc1O | inconclusive: -31.6%
CS(=O)(=O)N(Cc1ccc(Cl)cc1)c1ccc(C(=O)NCCC2=CCCCC2)cc1 | inconclusive: -40.8%
S=C(Nc1ccccc1)Nc1nccs1 | inconclusive: -38.5%
O=c1[nH]cnc2nc3n(c12)CCCCC3 | inconclusive: -40.5%
NS(=O)(=O)c1ccc(-c2ccc(C=C3C(=O)c4ccccc4C3=O)o2)cc1 | inconclusive: -47.1%
C=CCOc1ccccc1CN1CCC(Cc2ccccc2)CC1 | active: -52.4%
CC(C)NC(=S)N/N=C1\CCCCC1C1CCCCC1 (configuration not stated) | inconclusive: -46.8%
CN(C)CCCn1c(N)c(S(=O)(=O)c2ccccc2)c2nc3ccccc3nc21 | inconclusive: -41.4%

Pulled by structure from the list above, 3 records:
Compound | max response, negative = inhibition
CC(C)NC(=S)N/N=C1\CCCCC1C1CCCCC1 (configuration not stated) | inconclusive: -46.8%
S=C(Nc1ccccc1)Nc1nccs1 | inconclusive: -38.5%
CC(C)CCN1CCC(CN2C(=O)C(=O)NC[C@@H]2CC(C)C)CC1 | inconclusive: -31.5%

(next part)

Compound | max response, negative = inhibition
C=CCSC1=C(C#N)C(c2ccccc2)CC(=O)N1 (configuration not stated) | inconclusive: -35%
CC1=NN(C(=S)Nc2ccccc2)C(c2ccccc2)C1 (configuration not stated) | inconclusive: -46%
CC(NC(=O)c1ccc(N(C)C)cc1)C1CC2CCC1C2 (configuration not stated) | inconclusive: -38.6%
CCn1cc(C(=O)O)c(=O)c2cc(F)c(N3CCN(C(=S)NC(=O)c4ccccc4F)CC3)cc21 | inactive: -13%
Cc1nc(N2CCN(S(=O)(=O)c3ccccc3)CC2)c2cc(-c3ccccc3)sc2n1 | inconclusive: -41.2%
O=C(Cc1ccccc1)NC(NC(=S)Nc1cc(Cl)ccc1Cl)C(Cl)(Cl)Cl (configuration not stated) | inconclusive: -37.6%
CCn1c2ccccc2c2cc(NC(=O)C(C)Oc3ccccc3)ccc21 (configuration not stated) | inconclusive: -42.6%
O=C1/C(=C/c2cccnc2)CCC/C1=C\c1cccnc1 | inconclusive: -31.2%
O=C(CN(CC1CCCO1)C(=O)CNS(=O)(=O)c1ccc(F)cc1)NC1CCCC1 (configuration not stated) | inconclusive: -41.8%
O=C(NC(Cc1ccccc1)C(=O)O)/C(=C\c1ccc([N+](=O)[O-])cc1)NC(=O)c1ccco1 (configuration not stated) | inconclusive: -33.3%
C=CCn1c(SCc2csc(C)n2)nc2sc3c(c2c1=O)CCC(C)C3 (configuration not stated) | inconclusive: -44.1%
COC(=O)[C@@]12C[C@@H](CC(=O)N3CCOCC3)C(=O)N(Cc3ccc4c(c3)OCO4)C1=CCC(C)(C)C2 | inconclusive: -39.2%
O=Cc1cc(N=Nc2cccc(C(=O)O)c2)ccc1O | inconclusive: -49.5%
COc1ccc(-c2nnc(SCC(=O)N3CCOCC3)o2)cc1OC | inconclusive: -43%
COc1ccc(Cl)cc1Cn1c(C)c(C(=O)NCc2ccccc2C(F)(F)F)sc1=O | inconclusive: -36%
C=CC#CC1(O)CC(C)[N+](C)(C)CC1C (configuration not stated) | inconclusive: -30.4%
O=C(NCc1ccccc1)c1nc[nH]c1C(=O)NCc1ccccc1 | inconclusive: -32.1%
Cc1ccc(C)c(N2C(=O)CN=C2Nc2ccccc2Cl)c1 | inconclusive: -32.7%
CC(C)Oc1cc(F)ccc1-c1cc(C(=O)NCC2CCCCC2)[nH]n1 | active: -83.5%
Oc1ccc(/C=N/Nc2nccnc2Cl)cc1 | inconclusive: -31.5%
COCCC1CCCCN1Cc1cn(-c2ccccc2)nc1-c1ccc2c(c1)OCO2 (configuration not stated) | inconclusive: -31.3%
O=C(c1ccccc1Cl)N1N=C(c2ccc(Br)cc2)CC1c1nc2ccccc2[nH]1 (configuration not stated) | inconclusive: -41.3%

Single values from the results shown:
COc1ccc(-c2nnc(SCC(=O)N3CCOCC3)o2)cc1OC | max response, negative = inhibition: inconclusive: -43%
O=C(NC(Cc1ccccc1)C(=O)O)/C(=C\c1ccc([N+](=O)[O-])cc1)NC(=O)c1ccco1 (configuration not stated) | max response, negative = inhibition: inconclusive: -33.3%

Going on with the list:

Compound | max response, negative = inhibition
COc1ccc(N2CCN(C(=O)Cc3nn(C)c(=O)c4ccccc34)CC2)cc1 | inactive: 8.47%
CCOC(=O)C1(Cc2ccc(Cl)cc2)CCN(C(C)Cc2ccc(O)c(OC)c2)CC1 (configuration not stated) | inconclusive: -30.1%
Cc1n[nH]c(C)c1Sc1ccccc1N=Cc1cc(Cl)cc([N+](=O)[O-])c1O | active: -131%
O=C(Cn1cnc2sc(-c3ccccc3)cc2c1=O)NCc1ccccc1 | inconclusive: -46.2%
FC(F)(F)c1cccc(OCc2noc(-c3ccsc3)n2)c1 | inconclusive: -41.8%
c1ccc(-c2nccc(-c3ccco3)n2)nc1 | inconclusive: -37.1%
CC(CCC(C)C(C)(C)C)[C@@H]1CC[C@H]2C3C[C@H](OS(O)(=S)=S)[C@H]4C[C@H](OS(O)(=S)=S)[C@@H](OS(O)(=S)=S)C[C@]4(C)[C@H]3CC[C@]12C (some centres not stated) (tested in a mixture with another compound) | active: -83%
CCCc1c(-c2ccccc2)ncn1Cc1ccccc1OC | inactive: -2.7%
C=C[C@H]1CN2CC[C@H]1C[C@@H]2[C@@H](O)c1ccnc2ccc(OC)cc12 | inconclusive: -33.5%
COc1cccc(CN(C)C(=O)c2ccc(OCC(=O)Nc3cccc(C(F)(F)F)c3)c(OC)c2)c1 | inactive: 3.28%
COc1cccc(C(=O)/C=C/c2ccc(N3CCCCC3)c([N+](=O)[O-])c2)c1 | inconclusive: -47.8%
O=C1Nc2ccccc2-n2nnnc2C1N1CCN(c2ccccn2)CC1 (configuration not stated) | inactive: 0%
CCOc1ccc(CONS(=O)(=O)c2ccc(NC(C)=O)cc2)cc1Cl | inactive: -11.3%
c1ccc(-c2ccc(CN3CCN(c4ncccn4)CC3)cc2)cc1 | inconclusive: -35.4%
CCCCNC(=S)N/N=C1\CCCCc2ccccc21 | inconclusive: -36.8%
CC1CCN(CCOc2ccc(OCc3ccccc3)cc2)CC1 | inactive: -7.26%
CC(C)C[C@H](NC(=O)N1CCn2c1nc1ccccc12)C(=O)N[C@@H](Cc1ccccc1)C(=O)O | inactive: 11.9%
CCOC(=O)C1(Cc2ccccc2)C(=O)N(CCCN(C)C)c2ccccc21 (configuration not stated) | inconclusive: -35.7%
Cc1cccc(N2CCN(C(=O)NC3CCCCC3)CC2C)c1 (configuration not stated) | inactive: -10.6%
c1ccc(Cn2cc(CN3CCCCO3)c(-c3ccc4c(c3)OCO4)n2)cc1 | inactive: 22.6%
CS(=O)(=O)N(CC(=O)NCc1ccccc1Cl)Cc1ccccc1 | inconclusive: -34.6%
O=C(OCc1nnc(-c2ccccc2)o1)c1cc(=O)c2ccccc2o1 | inconclusive: -44.1%

Compound | max response, negative = inhibition
N=c1c(C(=O)NC2CCCC2)cc2c(=O)n3ccccc3nc2n1CC1CCCO1 (configuration not stated) | inactive: 3.06%
COc1ccccc1CNC(=O)c1ccc(OCC2CCCO2)cc1 (configuration not stated) | inconclusive: -30.7%
CCOc1ccc(C2CC(c3cccc(C)c3)n3ncnc3N2)cc1 (configuration not stated) | inconclusive: -31%
COc1ccc(NC(=O)[C@@H]2CC=C[C@@H]3CCN(Cc4ccc(Cl)c(Cl)c4)C(=O)[C@@H]32)cc1 | inconclusive: -42.2%
CCOC(=O)C[C@H]1c2ccccc2S(=O)(=O)N1Cc1cccc(C(F)(F)F)c1 | inactive: -8.75%
Cn1cc(CN2CCCC(C(=O)Nc3cccc(-c4cc5ccccc5[nH]4)c3)C2)cn1 (configuration not stated) | active: -68.4%
Cc1ccc(NC(=O)c2cccs2)cc1NC(=O)c1ccc(F)cc1 | inactive: 12.8%
CC(=O)Nc1ccc(S(=O)(=O)N2CCN=C2SCc2ccc(F)cc2)cc1 | inactive: 21.6%
CCCCN(CC)CCNC(=O)c1cc2c(-c3ccccc3F)nn(C)c2s1 | active: -61.2%
O=C(COC(=O)c1ccc(Cl)nc1)Nc1ccc(Cl)cc1 | inconclusive: -39.7%
COc1cccc(OCC(O)CN2CCN(c3ccccn3)CC2)c1 (configuration not stated) | inconclusive: -34.4%
CCc1ccc2oc(=O)cc(CN3CCC(C)CC3)c2c1 | inconclusive: -47.5%
Cc1nn(-c2ccccc2)c(Cl)c1/C=C1\SC(=S)N(C)C1=O | inconclusive: -37.5%
O=C(Nc1ccc2c(c1)OCO2)c1csc([C@@H]2C[C@H](O)[C@@H](CO)O2)n1 | inactive: -9.87%
O=C(NC(=S)Nc1ccc(N2CCOCC2)cc1)c1cccc(Cl)c1 | inconclusive: -46.4%
c1ccc(COc2ncnc3c2ncn3CCCN2CCN(Cc3cccc4ccccc34)CC2)cc1 | active: -67.1%
O=Cc1s/c(=N\S(=O)(=O)c2ccccc2)n(CCCCl)c1Cl | active: -120%
OCCCNCc1ccc(Cl)cc1Cl | inconclusive: -31.2%
Nc1ncnc2nc(SCCN3CCCCC3)[nH]c12 | inconclusive: -30.5%
CCn1ncc(C2=NOC(C(=O)Nc3cnn(C45CC6CC(CC(C6)C4)C5)c3)C2)c1C (configuration not stated) | inactive: -10.4%
COC(=O)c1ccc(CSc2nnc(-c3ccncc3)n2Cc2ccccc2)o1 | inconclusive: -33.4%
